Data from paper PMC4549274.

Biological target: CrRbcX-IIa(37–156) (Chlamydomonas reinhardtii)
Assay: crystal structure; fusion protein of CrRbcL 462–473 and CrRbcX-IIa(37–156) on one chain, hanging drop at 20°C, 0.1 M Tris-HCl pH 8.5, 25% PEG2000 monomethyl ether; molecular replacement, 1.97 Å; both purified

binding: binds
Binder: WKEIKFEFDTID [C-terminal recognition motif of CrRbcL, residues 462–473]

These are yes or no findings as the source states them, for the method shown. A result given as binding can be weak or reduced; the word gives no strength.
